The list does not hold the whole screen: it gathers tests that were run many times, whatever their T/C, doses with no T/C, and many T/C values between a quarter and a half above the control. Further doses and runs are listed elsewhere. T/C is the treated group as % of the vehicle group. Some doses have a count of surviving animals in place of a T/C: the source holds a T/C of zero for them, seemingly a mark for toxic or unscored doses. Some doses without a T/C left all or most animals alive at the check, yet need not have been tolerated: survival well below the control is almost never listed, so the zero probably covers shortened survival too. Survivors were counted at the toxicity check, usually on the fifth day, unless a day is given; later deaths do not show. Schedules are NCI's codes, read here as Q, the interval in days (D) or hours (H), X, the number of doses. Some entries were tested several times; their values stand side by side, smallest first. Some schedule codes hold Z or #, which are not explained here. Where survival is the endpoint, the PubChem record calls one and a half times the control and up active, and a quarter to a half above the control has no call in these data; cut-offs in other NCI protocols can differ.
Tested on: L1210 leukemia ip in BDF1 mice, survival T/C
Assay: NCI In Vivo Anticancer Drug Screen. Data for tumor model L1210 Leukemia (intraperitoneal) in B6D2F1 (BDF1) mice
Details: T/C endpoint: mean survival time, higher T/C = longer survival
[1] = dose: 300.0 mg/kg/injection, schedule: Q01DX001 (ip), vehicle: other
[2] = dose: 200.0 mg/kg/injection, schedule: Q01DX009 (ip), vehicle: Klucel (hydroxypropylcellulose) (HPC)
[3] = dose: 400.0 mg/kg/injection, schedule: Q01DX001 (ip), vehicle: saline
[4] = dose: 400.0 mg/kg/injection, schedule: Q04DX003 (ip), vehicle: saline with Tween-80
[5] = dose: 100.0 mg/kg/injection, schedule: Q01DX009 (ip), vehicle: Klucel (hydroxypropylcellulose) (HPC)
[6] = dose: 400.0 mg/kg/injection, schedule: Q01DX009 (ip), vehicle: Klucel (hydroxypropylcellulose) (HPC)
[7] = dose: 400.0 mg/kg/injection, schedule: Q04DX002 (ip), vehicle: saline with Tween-80
[8] = dose: 300.0 mg/kg/injection, schedule: Q01DX001 (ip), vehicle: saline
[9] = dose: 200.0 mg/kg/injection, schedule: Q01DX009 (ip), vehicle: saline with Tween-80
[10] = dose: 400.0 mg/kg/injection, schedule: Q01DX009 (ip), vehicle: saline with Tween-80
[11] = dose: 200.0 mg/kg/injection, schedule: Q01DX009 (ip), vehicle: saline
[12] = dose: 400.0 mg/kg/injection, schedule: Q04DX003 (ip), vehicle: saline

With `CC1CCC(NCCOC(=O)c2ccc(N)cc2)CC1` (stereo not given) the survivor count [1] was 0 of 6.
With `CCC1(N)COC(c2ccccc2)OC1` (stereo not given) the survivor count [2] was 0 of 6.
For `CCOC(=O)Nc1cc(NCc2ccccc2)c(N)c(N)n1`, the survivor count [3] was 1 of 6.
In the case of `O=CC(Br)C(Br)c1ccccc1` (stereo not given), the survivor count (dose: 200.0 mg/kg/injection, schedule: Q04DX003 (ip), vehicle: saline with Tween-80) was 5 of 6 and the survivor count [4] was 1 of 6.
In the case of `COC1/C=C/OC2(C)Oc3c(C)c(O)c4c(O)c(c(/C=N/N5CCN(Cc6ccccc6)CC5)c(O)c4c3C2=O)NC(=O)C(C)=C/C=C/C(C)C(O)C(C)C(O)C(C)C(OC(C)=O)C1C` (stereo not given), the survivor count [5] was 8 of 10, the survivor count [2] was 0 of 9 and the survivor count [6] was 0 of 10.
In the case of `O=c1cccccc1O.O=c1cccccc1O.[Cu]`, the survivor count (dose: 12.5 mg/kg/injection, schedule: Q01DX009 (ip), vehicle: Klucel (hydroxypropylcellulose) (HPC)) was 4 of 6, the survivor count (dose: 25.0 mg/kg/injection, schedule: Q01DX009 (ip), vehicle: Klucel (hydroxypropylcellulose) (HPC)) was 0 of 6 and the survivor count (dose: 50.0 mg/kg/injection, schedule: Q01DX009 (ip), vehicle: Klucel (hydroxypropylcellulose) (HPC)) was 0 of 6. The survivor count (dose: 100.0 mg/kg/injection, schedule: Q01DX001 (ip), vehicle: saline) was 0 of 6, the survivor count [5] was 0 of 6 and the survivor count (dose: 200.0 mg/kg/injection, schedule: Q01DX001 (ip), vehicle: saline) was 0 of 6. The survivor count [2] was 0 of 6, the survivor count [3] was 0 of 6 and the survivor count [6] was 0 of 6.
With `NC(=S)NNc1ccccc1` the survivor count [7] was 3 of 3.
In the case of `c1nc2c([nH]1)CCCCC2`, the survivor count (dose: 75.0 mg/kg/injection, schedule: Q04DX003 (ip), vehicle: other) was 0 of 6, the survivor count (dose: 100.0 mg/kg/injection, schedule: Q01DX009 (ip), vehicle: other) was 0 of 3 and 0 of 6 and the survivor count (dose: 100.0 mg/kg/injection, schedule: Q04DX002 (ip), vehicle: saline with Tween-80) was 0 of 3 and 0 of 6. For the same compound, the survivor count (dose: 150.0 mg/kg/injection, schedule: Q04DX003 (ip), vehicle: other) was 0 of 6, the survivor count (dose: 200.0 mg/kg/injection, schedule: Q04DX002 (ip), vehicle: saline with Tween-80) was 0 of 3 and 0 of 6 and the survivor count (dose: 300.0 mg/kg/injection, schedule: Q04DX003 (ip), vehicle: other) was 0 of 6. The survivor count [7] was 0 of 3 and 0 of 6.
In the case of `CCCCCCCCCCCCCC(=O)N(CCC)CCC`, the survivor count (dose: 400.0 mg/kg/injection, schedule: Q01DX009 (ip), vehicle: carboxymethylcellulose (CMC)) was 5 of 6 and 3 of 3.
`c1ccc(C2C(c3ccccc3)N2CCNC2=NCCN2)cc1` (stereo not given) was tested, and the survivor count [5] was 3 of 6, the survivor count [2] was 0 of 6 and the survivor count [6] was 0 of 6.
`CCOC(=O)Cc1cc(=O)[nH][nH]c1=O` was tested, and the survivor count (dose: 75.0 mg/kg/injection, schedule: Q04DX002 (ip), vehicle: Klucel (hydroxypropylcellulose) (HPC)) was 3 of 3.
For `NNC(=O)Cc1ccc(Cl)c2ccccc12`, the survivor count (dose: 400.0 mg/kg/injection, schedule: Q04DX003 (ip), vehicle: Klucel (hydroxypropylcellulose) (HPC)) was 5 of 6.
`NC(=O)c1cc(N2CC2)c([N+](=O)[O-])cc1[N+](=O)[O-]` was tested, and the survivor count (dose: 80.0 mg/kg/injection, schedule: Q01DX009 (ip), vehicle: saline) was 4 of 6.
With `CN(C(=O)N(CCCl)N=O)C1CCC(C(=O)O)CC1` (stereo not given) the T/C (dose: 90.0 mg/kg/injection, schedule: Q01DX009 (ip), vehicle: alkali diluted with saline) was 143 % of control and the T/C (dose: 268.0 mg/kg/injection, schedule: Q01DX001 (ip), vehicle: saline + Tween-80 + alkali) was 139 % of control.
With `[O-][n+]1onc2ccc(Cl)cc21` the survivor count (dose: 150.0 mg/kg/injection, schedule: Q01DX009 (ip), vehicle: Klucel (hydroxypropylcellulose) (HPC)) was 0 of 6, the survivor count (dose: 225.0 mg/kg/injection, schedule: Q01DX009 (ip), vehicle: Klucel (hydroxypropylcellulose) (HPC)) was 0 of 6 and the survivor count (dose: 335.0 mg/kg/injection, schedule: Q01DX009 (ip), vehicle: Klucel (hydroxypropylcellulose) (HPC)) was 0 of 6.
`COc1cc2c(cc1OC)C1(CCCl)C3CC4C(=CCOC5CC(=O)N2C1C54)CN3C(=O)Cc1ccccc1` (stereo not given) was tested, and the survivor count (dose: 150.0 mg/kg/injection, schedule: Q01DX001 (ip), vehicle: saline) was 2 of 6 and the survivor count [8] was 0 of 6.
In the case of `COc1ccc2nc3cc(Cl)ccc3c(NCCC[N+](C)(C)CCCCCCCCCC[N+](C)(C)CCCNc3c4ccc(Cl)cc4nc4ccc(OC)cc34)c2c1`, the survivor count (dose: 100.0 mg/kg/injection, schedule: Q01DX009 (ip), vehicle: saline with Tween-80) was 0 of 6, the survivor count [9] was 0 of 6 and the survivor count [10] was 0 of 6.
For `CCCCCCCC/C=C\CCCCCCCC(=O)N1CC[N+](C)(C)CC1`, the survivor count (dose: 80.0 mg/kg/injection, schedule: Q01DX001 (ip), vehicle: saline) was 0 of 6.
With `CCC(C)C(CN)(CCCCN(C)C)c1cccc2ccccc12` (stereo not given) the survivor count [4] was 6 of 6.
With `N=c1nc(N)nc2c3ccccc3nnn12` the survivor count [1] was 1 of 6.
With `[O-][n+]1c(Cl)nc(Cl)c(Cl)c1C(Cl)(Cl)Cl` the survivor count (dose: 100.0 mg/kg/injection, schedule: Q04DX003 (ip), vehicle: other) was 0 of 3, the survivor count (dose: 200.0 mg/kg/injection, schedule: Q04DX003 (ip), vehicle: other) was 0 of 3 and the survivor count (dose: 400.0 mg/kg/injection, schedule: Q04DX003 (ip), vehicle: other) was 0 of 3.
For `O=C(Nc1ccc(Br)cc1)c1cc(Br)cc(Br)c1O`, the T/C (dose: 6.25 mg/kg/injection, schedule: Q04DX002 (ip), vehicle: saline) was 125 % of control, the survivor count (dose: 50.0 mg/kg/injection, schedule: Q04DX002 (ip), vehicle: saline) was 3 of 3 and the survivor count (dose: 100.0 mg/kg/injection, schedule: Q04DX002 (ip), vehicle: saline) was 3 of 3.
In the case of `Nc1ccc(OCCNS(=O)(=O)c2cccc(S(=O)(=O)F)c2)c(Cl)c1`, the survivor count [11] was 3 of 6 and the survivor count [12] was 4 of 6.
In the case of `O=S(c1ccccc1)C1CCCCC1O` (stereo not given), the survivor count [7] was 3 of 3.
For `CCc1nc(N[N+](=O)[O-])nc(N)c1-c1ccccc1O`, the survivor count (dose: 200.0 mg/kg/injection, schedule: Q04DX002 (ip), vehicle: Klucel (hydroxypropylcellulose) (HPC)) was 3 of 3.
In the case of `NC(=O)NNC(N)=O`, the survivor count [11] was 5 of 6 and the survivor count [12] was 3 of 6.
In the case of `OCCOc1c(Cl)cc(Cl)cc1Cl`, the survivor count [9] was 6 of 6.
In the case of `CN1CCCN(C)C1`, the survivor count [9] was 3 of 6 and the survivor count [4] was 0 of 6.
With `CC(=O)Nc1ccc([I+]c2ccc([N+](=O)[O-])cc2)cc1` the survivor count [10] was 0 of 6.
In the case of `CCOC(=O)c1cccc2ccc[n+](C)c12`, the survivor count [8] was 2 of 6.
For `Cc1noc(-c2ccc([N+](=O)[O-])o2)n1`, the survivor count (dose: 400.0 mg/kg/injection, schedule: Q04DX002 (ip), vehicle: Klucel (hydroxypropylcellulose) (HPC)) was 0 of 3.
For `OC1(c2cccc3ccccc23)CCCCC1`, the survivor count [4] was 6 of 6.
In the case of `CN=C(c1ccc(NC(=O)c2ccc(C(=O)Nc3ccc(C(=NC)N(C)c4ccccc4)cc3)cc2)cc1)N(C)c1ccccc1`, the survivor count (dose: 7.5 mg/kg/injection, schedule: Q01DX Z (ip), vehicle: saline) was 0 of 6, the survivor count (dose: 15.0 mg/kg/injection, schedule: Q01DX Z (ip), vehicle: other) was 0 of 6 and the survivor count (dose: 30.0 mg/kg/injection, schedule: Q01DX Z (ip), vehicle: other) was 0 of 6. For the same compound, the survivor count (dose: 60.0 mg/kg/injection, schedule: Q01DX Z (ip), vehicle: other) was 0 of 6 and the survivor count (dose: 120.0 mg/kg/injection, schedule: Q01DX Z (ip), vehicle: other) was 0 of 6.
`CCC(C(C)C)C(Br)C(Br)C(C)C1CCC2C3CC=C4CC(OC(C)=O)CCC4(C)C3CCC12C` (stereo not given) was tested, and the survivor count [5] was 6 of 6.

Source: PubChem BioAssay AID248 (DTP/NCI, 2004)
